Results are given in words; binding and its absence hold for the method and conditions named. Binding seen in cells or lysates may run through a third protein. Some entries that bind do so weakly or less than the wild type. Where a sequence is shown, tags or fusion partners need not be part of it.
Experiments:
[1] = biological target: soluble PRO175 polypeptide (PRO175 ECD, E. coli, Met-Gly-His10-enterokinase-site tagged) (human); assay: co-precipitation assay, autoradiograph (legend of FIG. 10)
[2] = biological target: soluble PRO175 polypeptide (PRO175 ECD, E. coli, Met-Gly-His10-enterokinase-site tagged) (human); assay: co-precipitation of 125I-PRO175 with immunoadhesin and protein A-sepharose, SDS-PAGE, autoradiography
[3] = biological target: soluble PRO175 polypeptide (PRO175 ECD, E. coli, Met-Gly-His10-enterokinase-site tagged) (human); assay: summary of the co-precipitation and FACS assays of Example 6

Measured: binding

B1: PRO364-IgG (soluble immunoglobulin fusion protein of the PRO364 extracellular domain) (Fc fusion)
chain: QRPTGGPGCGPGRLLLGTGTDARCCRVHTTRCCRDYPGEECCSEWDCMCVQPEFHCGDPCCTTCRHHPCPPGQGVQSQGKFSFGFQCIDCASGTFSGGHEGHCKPWTDCTQFGFLTVFPGNKTHNAVCVPGSPPAE
notes: Expressed in insect cells with Baculovirus; also called PRO364 immunoadhesin; PRO364 ECD C-terminus IgG-Fc tagged form; not shown: IgG-Fc at the C-terminus
binds: all assays above

— patent US20050202008A1 (Genentech, published 2005)
